Data taken from article PMC10629583, “Specific inhibition of an anticancer target, polo-like kinase 1, by allosterically dismantling its mechanism of substrate recognition” (Proceedings of the National Academy of Sciences of the …, 2023).
No constants are given. Whether binding was seen depends on the method and setting. Binding seen in cells or lysates may run through a third protein. Some entries that bind do so weakly or less than the wild type.

Chains of the proteins cited; added tags and fusions are not shown. Lines headed by an entry give the natural chain unless they say otherwise; changes in a name come on top.
UniProt P53350: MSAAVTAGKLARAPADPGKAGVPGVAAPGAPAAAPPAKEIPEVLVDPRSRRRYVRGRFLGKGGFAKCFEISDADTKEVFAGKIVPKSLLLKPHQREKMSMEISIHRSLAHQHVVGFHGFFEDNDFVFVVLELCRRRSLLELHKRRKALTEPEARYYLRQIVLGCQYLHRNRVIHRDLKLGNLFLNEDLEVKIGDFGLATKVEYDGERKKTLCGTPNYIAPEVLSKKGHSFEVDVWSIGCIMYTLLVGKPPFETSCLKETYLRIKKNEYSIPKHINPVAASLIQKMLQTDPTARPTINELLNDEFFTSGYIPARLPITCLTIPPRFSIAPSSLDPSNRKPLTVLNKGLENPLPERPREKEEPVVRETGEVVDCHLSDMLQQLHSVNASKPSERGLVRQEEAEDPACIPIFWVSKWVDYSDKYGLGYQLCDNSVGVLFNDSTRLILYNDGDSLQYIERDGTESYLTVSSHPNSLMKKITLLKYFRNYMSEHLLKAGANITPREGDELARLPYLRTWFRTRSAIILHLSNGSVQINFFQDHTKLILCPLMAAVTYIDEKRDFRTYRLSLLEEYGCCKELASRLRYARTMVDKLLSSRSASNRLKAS

Molecular target: Flag-Plk1 F559D mutant (human) (UniProt P53350)
Test: co-IP; anti-Flag immunoprecipitation from HeLa cells stably expressing Flag-Plk1 WT or F559D, TBSN buffer (20 mM Tris-Cl pH 8.0, 150 mM NaCl, 0.5% NP-40); cells treated with 600 nM nocodazole 16 h and 300 nM okadaic acid 1.5 h, and with DMSO or 20 μM Allopole for 2 h; immunoblot

binding: binds
B1: phosphorylated Cdc25C (protein, UniProt P30307 1-473)
chain: MSTELFSSTREEGSSGSGPSFRSNQRKMLNLLLERDTSFTVCPDVPRTPVGKFLGDSANLSILSGGTPKRCLDLSNLSSGEITATQLTTSADLDETGHLDSSGLQEVHLAGMNHDQHLMKCSPAQLLCSTPNGLDRGHRKRDAMCSSSANKENDNGNLVDSEMKYLGSPITTVPKLDKNPNLGEDQAEEISDELMEFSLKDQEAKVSRSGLYRSPSMPENLNRPRLKQVEKFKDNTIPDKVKKKYFSGQGKLRKGLCLKKTVSLCDITITQMLEEDSNQGHLIGDFSKVCALPTVSGKHQDLKYVNPETVAALLSGKFQGLIEKFYVIDCRYPYEYLGGHIQGALNLYSQEELFNFFLKKPIVPLDTQKRIIIVFHCEFSSERGPRMCRCLREEDRSLNQYPALYYPELYILKGGYRDFFPEYMELCEPQSYCPMHHQDHKTELLRCRSQSKVQEGERQLREQIALLVKDMSP
modifications: phosphorylated (sites not given)
